{"source": "PubChem BioAssay (NCATS)", "note": "Inconclusive results, whose numbers are uncertain, are shown with a selection of clear calls. A potency beside an inconclusive call is a rough fit, not a confirmed value. Active and inactive are the calls of the source. Calls follow the shape of the dose curve; as a rule, active = well fitted cell-killing curve with a large enough effect; inconclusive = small, poorly fitted or top-dose-only effect, or effect the other way; inactive = flat fitted curve, though single readings scatter. % is scaled to controls: 0 for no effect and ±100 for the full control effect; potency is read from the fitted curve at half-maximal effect."}
{"test": "Cell viability qHTS assay in S16 Pmp22-F2sN cells - Confirmatory screen (AID 1508641)", "details": "S16 Schwann cells viability, CellTiter-Glo ATP luminescence, 24 h; activity change, negative = viability loss: at 57.5 µM (top of the series)", "how_it_was_run": "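CellTiter-Glo luminescence, read after 15 min at room temperature, measured viability. Before that, S16 Pmp22-F2sN cells (500-1,000 per well, DMEM plus 10% FBS) were exposed to compounds for 24 h at 37C.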"}
{"smiles": "CCOC(=O)c1c(C)[nH]c(CCC(=O)NCCCN2CCN(c3cc(C)ccc3C)CC2)c1C", "Potency": "active: 30.6 µM"}
{"smiles": "O=C(Cn1c(=O)n(Cc2ccccc2)c(=O)c2sc3ccccc3c21)Nc1ccc(F)cc1", "activity change, negative = viability loss": "inconclusive: -58.7% [cytotoxic]"}
{"smiles": "CCN1CCOC(=O)C1CC(=O)Nc1cc(Cl)ccc1C", "note": "(stereo not given)", "Potency": "inconclusive: 43.2 µM [cytotoxic, single point]"}
{"smiles": "CCc1ccc(CNc2ncc(-c3cccc(OC)c3)n2C)cc1", "Potency": "inconclusive: 0.544 µM [rising, full curve, poor fit]"}
{"smiles": "CCc1ccc(NC(=O)CC2C(=O)OCCN2CC)cc1", "note": "(stereo not given)", "activity change, negative = viability loss": "inactive: -26.6%"}
{"smiles": "O=C(CSc1ncc2c(n1)-c1ccccc1N(Cc1ccc(F)cc1)S2(=O)=O)NCCc1ccccc1", "Potency": "inconclusive: 43.2 µM [cytotoxic, single point]"}
{"smiles": "O=C1COc2ccc(-c3cc(-c4ccc(F)cc4)c4c(n3)-c3ccccc3OC4)cc2N1", "activity change, negative = viability loss": "inconclusive: -32.6% [cytotoxic]"}
{"smiles": "Cc1ccc2c(c1)C(=O)C(=O)N2Cc1ccc(OCCC(C)C)cc1", "activity change, negative = viability loss": "inactive: -6.24%"}
{"smiles": "CCN(CC)c1ccc(NC(=O)C2COc3ccc(OC)cc3C2)c(C)c1", "note": "(stereo not given)", "Potency": "inconclusive: 43.2 µM [cytotoxic, single point]"}
{"smiles": "COc1ccc(-c2cc(C(F)(F)F)nc(NCCc3ccccc3)n2)cc1OC", "activity change, negative = viability loss": "inactive: -17.9%"}
